The list is a part of this screen's results and no random one: it is rich in T/C values a quarter to a half above the control, in often repeated tests (any T/C) and in doses without a T/C. Other doses and runs of a compound stand elsewhere. T/C: endpoint of the treated group in % of that of the vehicle group. Some doses have a count of surviving animals in place of a T/C: the source files T/C as zero there, which appears to mark a toxic dose or a test without result, not a measured value. Some survivor counts are full or nearly so, which does not show that the dose was tolerated: the source hardly ever lists a survival T/C far under the control, and the zero likely stands for such cases as well. Counts of survivors are from the toxicity check (mostly the fifth day) where no day follows; animals may have died later. Schedule codes are those of the source, taken here to give the interval after Q, in days (D) or hours (H), and the number of doses after X. Some structures stand for samples that the source files as different forms (salt, stereo form or complex); doses refer to the form tested. Some doses were run more than once; their values stand side by side, smallest first. For survival time, the PubChem record calls one and a half times the control and up active, and a quarter to a half above the control has no call in these data; cut-offs in other NCI protocols can differ. Marks such as (2×) count equal records among those shown. Some T/C values are followed by the survivors on the day toxicity was checked, most often the fifth; where none is given, no animal had died by that day.
Tested on: P388 leukemia ip, CD2F1 mice, survival T/C
Experiment: NCI In Vivo Anticancer Drug Screen. Data for tumor model P388 Leukemia (intraperitoneal) in CD2F1 (CDF1) mice
Conditions: T/C endpoint: median survival time, higher T/C = longer survival
[1] = dose: 200.0 mg/kg/injection, schedule: Q01DX005 (ip), vehicle: saline
[2] = dose: 120.0 mg/kg/injection, schedule: Q01DX005 (ip), vehicle: Klucel (hydroxypropylcellulose) (HPC)
[3] = dose: 240.0 mg/kg/injection, schedule: Q01DX005 (ip), vehicle: Klucel (hydroxypropylcellulose) (HPC)
[4] = dose: 50.0 mg/kg/injection, schedule: Q01DX005 (ip), vehicle: Klucel (hydroxypropylcellulose) (HPC)
[5] = dose: 200.0 mg/kg/injection, schedule: Q01DX009 (ip), vehicle: saline with Tween-80
[6] = dose: 100.0 mg/kg/injection, schedule: Q01DX009 (ip), vehicle: distilled water + Tween-80

With CCOc1ccc(O)c(CN2CCN(Cc3cc(OCC)ccc3O)CC2)c1 the survivor count (dose: 120.0 mg/kg/injection, schedule: Q01DX005 (ip), vehicle: saline with Tween-80) was 6 of 6 and the survivor count (dose: 240.0 mg/kg/injection, schedule: Q01DX005 (ip), vehicle: saline with Tween-80) was 6 of 6.
For COc1ccc2c3c1OC1C(=O)C=C[C@@]4(Br)[C@@H](C2)N(C)CC[C@]314 (stereo partly drawn), the survivor count (dose: 100.0 mg/kg/injection, schedule: Q04DX002 (ip), vehicle: saline with Tween-80) was 0 of 6, the survivor count (dose: 200.0 mg/kg/injection, schedule: Q04DX002 (ip), vehicle: saline with Tween-80) was 0 of 6 and the survivor count (dose: 400.0 mg/kg/injection, schedule: Q04DX002 (ip), vehicle: saline with Tween-80) was 0 of 6.
In the case of O=C(/C=C/c1cccc(Cl)c1)c1ccccc1, the T/C (dose: 300.0 mg/kg/injection, schedule: Q01DX009 (ip), vehicle: Klucel (hydroxypropylcellulose) (HPC)) is reported as 129 % of control.
In the case of Cc1c2cnccc2c(C)c2c1c1ccccc1n2CC1CO1 (stereo not drawn), the T/C (dose: 2.75 mg/kg/injection, schedule: Q01DX009 (ip), vehicle: saline with Tween-80) is reported as 132 % of control, the T/C (dose: 3.13 mg/kg/injection, schedule: Q01DX009 (ip), vehicle: saline with Tween-80) is reported as 146 % of control and the T/C (dose: 5.5 mg/kg/injection, schedule: Q01DX009 (ip), vehicle: saline with Tween-80) is reported as 149 % of control. The T/C (dose: 16.0 mg/kg/injection, schedule: Q01DX009 (ip), vehicle: Klucel (hydroxypropylcellulose) (HPC)) was 134 % of control, the T/C (dose: 32.0 mg/kg/injection, schedule: Q01DX009 (ip), vehicle: Klucel (hydroxypropylcellulose) (HPC)) was 145 % of control and the T/C (dose: 32.0 mg/kg/injection, schedule: Q04DX003 (ip), vehicle: Klucel (hydroxypropylcellulose) (HPC)) was 130 % of control. For the same compound, the T/C (dose: 37.5 mg/kg/injection, schedule: Q01DX009 (ip), vehicle: saline with Tween-80) was 130 % of control and the T/C (dose: 64.0 mg/kg/injection, schedule: Q04DX003 (ip), vehicle: Klucel (hydroxypropylcellulose) (HPC)) was 139 % of control.
Cc1cccc[c]1[Sn]([Cl])([O][Sn]([Cl])([c]1ccccc1C)[c]1ccccc1C)[c]1ccccc1C was tested, and the T/C (dose: 0.39 mg/kg/injection, schedule: Q01DX005 (ip), vehicle: saline) was 133 % of control, the T/C (dose: 0.79 mg/kg/injection, schedule: Q01DX005 (ip), vehicle: saline) was 128 and 129 % of control and the T/C (dose: 1.56 mg/kg/injection, schedule: Q01DX005 (ip), vehicle: saline) was 133 % of control. For the same compound, the survivor count (dose: 3.12 mg/kg/injection, schedule: Q01DX005 (ip), vehicle: saline) was 1 of 6, the survivor count (dose: 6.25 mg/kg/injection, schedule: Q01DX005 (ip), vehicle: saline) was 0 of 6 and the survivor count (dose: 12.5 mg/kg/injection, schedule: Q01DX005 (ip), vehicle: saline) was 0 of 6. The survivor count (dose: 50.0 mg/kg/injection, schedule: Q01DX005 (ip), vehicle: saline) was 0 of 6, the survivor count (dose: 100.0 mg/kg/injection, schedule: Q01DX005 (ip), vehicle: saline) was 0 of 6 and the survivor count [1] was 0 of 6.
In the case of CCN(CC)CCOC(=O)Nc1c(Cl)cccc1Cl, the survivor count [2] is reported as 1 of 6 and the survivor count [3] is reported as 0 of 6.
Cc1c2cc[n+](C)cc2c(C)c2c1[nH]c1ccccc12 was tested, and the T/C (dose: 3.12 mg/kg/injection, schedule: Q04DX002 (ip), vehicle: distilled water + Tween-80) was 133 % of control, the T/C (dose: 5.0 mg/kg/injection, schedule: Q04DX002 (ip), vehicle: water) was 130 and 138 % of control and the T/C (dose: 6.25 mg/kg/injection, schedule: Q04DX002 (ip), vehicle: distilled water + Tween-80) was 126 % of control (2×). For the same compound, the T/C (dose: 10.0 mg/kg/injection, schedule: Q04DX002 (ip), vehicle: water) was 134 and 144 % of control, the T/C (dose: 12.5 mg/kg/injection, schedule: Q04DX002 (ip), vehicle: distilled water + Tween-80) was 138 % of control and the T/C (dose: 20.0 mg/kg/injection, schedule: Q04DX002 (ip), vehicle: water) was 137 [5 of 6 alive] and 145 % of control. For the same compound, the T/C (dose: 25.0 mg/kg/injection, schedule: Q04DX002 (ip), vehicle: distilled water + Tween-80) was 125 and 145 % of control, the survivor count (dose: 40.0 mg/kg/injection, schedule: Q04DX002 (ip), vehicle: water) was 3 of 6 and 5 of 6 and the survivor count (dose: 50.0 mg/kg/injection, schedule: Q04DX002 (ip), vehicle: distilled water + Tween-80) was 4 of 6 and 6 of 6. The survivor count (dose: 80.0 mg/kg/injection, schedule: Q04DX002 (ip), vehicle: water) was 1 of 6, the survivor count (dose: 100.0 mg/kg/injection, schedule: Q04DX002 (ip), vehicle: distilled water + Tween-80) was 4 of 6 and the survivor count (dose: 200.0 mg/kg/injection, schedule: Q04DX002 (ip), vehicle: distilled water + Tween-80) was 0 of 6.
COc1cc2c(c(OC)c1OC)-c1[nH]ncc1CC2 was tested, and the survivor count (dose: 200.0 mg/kg/injection, schedule: Q04DX003 (ip), vehicle: Klucel (hydroxypropylcellulose) (HPC)) was 6 of 6.
For NC(=O)/C(N=Nc1ccccc1S(=O)(=O)O)=N/Nc1ccccc1S(=O)(=O)O, the survivor count [4] was 6 of 6.
With CCCCCCCCCOCC(COP(=O)([O-])OCC[N+](C)(C)C)OC (stereo not drawn) the survivor count [1] was 3 of 5.
With c1ccc2c(c1)[nH]c1nc3ccncc3nc12 the survivor count [5] was 6 of 6.
CCOC(=O)C1=C(O)C[C@]2(O)C3CC=C(C)[C@@H]4CCO[C@](OC)(C[C@H]2C1)[C@]34C(=O)OC (stereo partly drawn) was tested, and the survivor count (dose: 200.0 mg/kg/injection, schedule: Q01DX005 (ip), vehicle: saline with Tween-80) was 6 of 6.
For COc1ccc(Oc2cc3c[n+](C)ccc3cc2OC)cc1, the survivor count (dose: 50.0 mg/kg/injection, schedule: Q01DX009 (ip), vehicle: alcohol) was 5 of 6, the survivor count (dose: 50.0 mg/kg/injection, schedule: Q01DX009 (ip), vehicle: saline) was 2 of 6 and the survivor count (dose: 100.0 mg/kg/injection, schedule: Q01DX009 (ip), vehicle: alcohol) was 0 of 6. For the same compound, the survivor count (dose: 200.0 mg/kg/injection, schedule: Q01DX009 (ip), vehicle: alcohol) was 0 of 6.
For CCCCN(CCCC)C(=S)S, the survivor count [2] was 6 of 6 and the survivor count [3] was 4 of 6.
In the case of O=C1NC(=O)C2=C1CCCC2Br (stereo not drawn), the survivor count (dose: 25.0 mg/kg/injection, schedule: Q01DX009 (ip), vehicle: distilled water + Tween-80) is reported as 2 of 6, the survivor count (dose: 50.0 mg/kg/injection, schedule: Q01DX009 (ip), vehicle: distilled water + Tween-80) is reported as 0 of 6 and the survivor count [6] is reported as 0 of 6.
For OCCN(CCO)CC(O)COc1cccc2ccccc12 (stereo not drawn), the survivor count (dose: 400.0 mg/kg/injection, schedule: Q01DX009 (ip), vehicle: saline) was 0 of 6.
For Clc1ccc(-n2ccc(=N/N=C/c3ccc(Cl)c(Cl)c3)cc2)cc1, the survivor count (dose: 200.0 mg/kg/injection, schedule: Q01DX001 (ip), vehicle: Klucel (hydroxypropylcellulose) (HPC)) was 1 of 6 and the survivor count (dose: 400.0 mg/kg/injection, schedule: Q01DX001 (ip), vehicle: Klucel (hydroxypropylcellulose) (HPC)) was 0 of 6.
For O=Cc1c(-c2ccc(Cl)cc2)nc2n1CCS2, the survivor count (dose: 200.0 mg/kg/injection, schedule: Q04DX002 (ip), vehicle: Klucel (hydroxypropylcellulose) (HPC)) was 1 of 6.
For C(=N\Nc1c2c(nc3ccccc13)CCCC2)/c1ccc2c(c1)OCO2, the survivor count (dose: 25.0 mg/kg/injection, schedule: Q01DX005 (ip), vehicle: Klucel (hydroxypropylcellulose) (HPC)) was 5 of 6, the survivor count [4] was 5 of 6 and the survivor count (dose: 100.0 mg/kg/injection, schedule: Q01DX005 (ip), vehicle: Klucel (hydroxypropylcellulose) (HPC)) was 2 of 6. For the same compound, the survivor count (dose: 200.0 mg/kg/injection, schedule: Q01DX005 (ip), vehicle: Klucel (hydroxypropylcellulose) (HPC)) was 0 of 6.
In the case of C/C(=C\Cl)COC1CCCCO1 (stereo not drawn), the T/C [5] is reported as 127 % of control.
COC(=O)C(CSC(c1ccccc1)(c1ccccc1)c1ccccc1)NC(=O)C(CC(N)=O)NC(=O)OCc1ccccc1 (stereo not drawn) was tested, and the T/C [6] was 125 and 126 % of control, the survivor count (dose: 200.0 mg/kg/injection, schedule: Q01DX009 (ip), vehicle: distilled water + Tween-80) was 6 of 6 and the survivor count (dose: 400.0 mg/kg/injection, schedule: Q01DX009 (ip), vehicle: distilled water + Tween-80) was 3 of 6.

Reference: PubChem BioAssay AID330 (DTP/NCI, 2004)
